This is one part of the list.
Assay: autophagy modulators in MEF cells, primary screen, imaging, high-content, MEF GFP-LC3 (AID 463193);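 further: cell loss after 18 h compound exposure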
Conditions: MEF GFP-LC3 puncta imaging, measured here: cell loss, nuclei count, at 10 µM

SMILES	toxicity
Cc1c(NP(C)(=O)Oc2ccc(C(C)C)cc2)c(=O)n(-c2ccccc2)n1C (stereo unspecified)	-0.868%
CC(C)CC(=O)NC(Sc1ccc(Cl)cc1)C(Cl)(Cl)Cl (stereo unspecified)	1.54%
O=[N+]([O-])c1cc([N+](=O)[O-])c(Nc2ccccn2)c([N+](=O)[O-])c1	10.9%
Oc1ccccc1CNc1ccccn1	-18.1%
O=C(NC(Sc1ccncn1)C(Cl)(Cl)Cl)c1ccccc1 (stereo unspecified)	5.93%
Cc1c2non([O-])c-2c(C)[n+](=O)[n+]1[O-]	-1.29%
CP(=O)(Nc1ccccn1)Oc1ccccc1 (stereo unspecified)	-8.19%
COc1ccccc1OP(C)(=O)Nc1ccc(C)cc1C (stereo unspecified)	-4.29%
CCc1ccc(OP(C)(=O)O)cc1	3.47%
NC(=O)c1cc([N+](=O)[O-])cc([N+](=O)[O-])c1N	-3.91%
Cc1ccc(N/C(=N/P(=O)(N2CCOCC2)N2CCOCC2)N2CCOCC2)cc1	0.108%
COc1ccccc1OP(=O)(Nc1ccc(C)cn1)Oc1ccccc1OC	-12.7%
COc1ccc(OP(C)(=O)Nc2ccccn2)cc1 (stereo unspecified)	0.0206%
CN1CCCC(OC(=O)C(c2ccccc2)c2ccccc2)C1 (stereo unspecified)	3.01%
Clc1ccc(Cl)c(NC2=NCC(CBr)S2)c1 (stereo unspecified)	11.1%
CN(C)CCOC(=O)C(O)(c1ccccc1)C1CCCC1 (stereo unspecified)	24.9%
Cc1nc2ccc3ccccc3c2o1.O=[N+]([O-])c1cc([N+](=O)[O-])c(O)c([N+](=O)[O-])c1	-9.28%
CCN(N=Nc1nonc1N)c1nonc1N	4.76%
CP(=O)(Nc1ccc(Cl)cc1Cl)Oc1ccccc1 (stereo unspecified)	-0.18%
CP(=O)(OCCOc1ccccc1)OCCOc1ccccc1	-6.63%
Cc1cc(C)cc(OP(C)(=O)Nc2cccc(C(F)(F)F)c2)c1 (stereo unspecified)	12.3%
Cc1cc(SC(NC(=O)c2ccc(F)cc2)C(Cl)(Cl)Cl)ncn1 (stereo unspecified)	5.75%
CCOP(=O)(Nc1ccccc1)OCC	-35.6%
COc1ccccc1OP(C)(=O)Nc1ccc(C)c(C)c1 (stereo unspecified)	14%

SMILES	toxicity
COc1ccc(OP(C)(=O)Nc2ccccc2Br)cc1 (stereo unspecified)	27.6%
O=[N+]([O-])c1ncn(CCn2ncnc2[N+](=O)[O-])n1	-11.9%
CCOC(=O)c1ccc(NP(C)(=O)Oc2ccc(Cl)cc2)cc1 (stereo unspecified)	7.36%
CP(=O)(OC12CC3CC(CC(C3)C1)C2)OC12CC3CC(CC(C3)C1)C2	-9.79%
COc1ccccc1OP(C)(=O)Nc1ccccc1Br (stereo unspecified)	3.51%
CC(C)(C)c1ccc(OP(C)(=O)O)cc1	3.36%
CCN(/C(=N/P(=O)(N1CCOCC1)N1CCOCC1)N1CCOCC1)c1ccc(OC)cc1	-0.905%
CP(=O)(Nc1ccc(Cl)cc1)Oc1ccc(F)cc1 (stereo unspecified)	1.69%
CN(C)C(=O)c1c([N+](=O)[O-])cc([N+](=O)[O-])cc1[N+](=O)[O-]	10.4%
CC(C)=N/N=C(\N)N[N+](=O)[O-]	-16.4%
CN(C)C(=O)OCCc1n(C)cc[n+]1C	-12.4%
CC1CCN(C(=O)Oc2c(Cl)cc(Cl)c3cccnc23)CC1	12.9%
CCN(CC)CC(O)COC(=O)C(O)(c1ccccc1)C1CCCCC1 (stereo unspecified)	10.5%
COc1ccc(OP(C)(=O)Nc2ccc(Br)cc2)cc1 (stereo unspecified)	3.21%
COc1ccc(C2=NCC(CBr)S2)cc1 (stereo unspecified)	-11.5%
O=[N+]([O-])c1cccc2n[nH]nc12	-1.35%
CC(=O)N1C2C3N(C(C)=O)C1C1N(C(C)=O)C(C(N1C(C)=O)N3C(C)=O)N2C(C)=O	4.11%
COc1ccccc1OP(C)(=O)Nc1c(C)n(C)n(-c2ccccc2)c1=O (stereo unspecified)	3.31%
CP(=O)(Oc1ccccc1)N1CCOC1=O (stereo unspecified)	70.3%
Cc1ccc(NP(=O)(Oc2ccccc2)Oc2ccccc2)nc1	9.62%
CCc1ccc(OP(C)(=O)Nc2cccnc2)cc1 (stereo unspecified)	9.8%
CCc1nc2c(n1)c1c(non1O)c1c2no[n+]1[O-]	15.3%
O=[N+]([O-])c1cc([N+](=O)[O-])c(CCNc2ccccc2)c([N+](=O)[O-])c1	23.6%
CP(=O)(Nc1ccc2c(c1)OCCO2)Oc1ccccc1 (stereo unspecified)	-3.33%

SMILES	toxicity
Cc1ccccc1NP(C)(=O)Nc1ccccc1C	-6.89%
CC(C)C(=O)NC(Sc1ccccc1)C(Cl)(Cl)Cl (stereo unspecified)	9.63%
O=P(Nc1nccs1)(c1ccccc1)c1ccccc1	1.15%
CCOP(C)(=S)SCC(=O)NC(C)(CC)C(=O)O (stereo unspecified)	-1.17%
CC(=O)NC(SC(=S)N(C)C)C(Cl)(Cl)Cl (stereo unspecified)	-3.85%
O=[N+]([O-])c1cc([N+](=O)[O-])c(NCC2CCS(=O)(=O)C2)c([N+](=O)[O-])c1 (stereo unspecified)	13.8%
C(Cc1nn[nH]n1)Cc1nn[nH]n1	-8.95%
O=C(OC1CN2CCC1CC2)c1cccc(Cl)c1 (stereo unspecified)	12.2%
COc1ccc(OP(C)(=O)Nc2cccc(Br)c2)cc1 (stereo unspecified)	25.9%
O=P(Nc1ccccn1)(c1ccc(Br)cc1)c1ccc(Br)cc1	12.1%
CN(C)CCOC(=O)C(O)(c1ccccc1)C1CCCCC1 (stereo unspecified)	-1.25%
COc1ccc(NP(C)(=O)Oc2ccccc2OC)cc1 (stereo unspecified)	19.3%
COC(=O)c1cc2c(s1)N=C(c1ccccc1)N(C)P2(=O)N1CCOCC1 (stereo unspecified)	9.27%
Cc1ccc(OP(=O)(Nc2ccccn2)Oc2ccc(C)cc2)cc1	6.77%
CC(=O)NC(SC(=S)N(CC(C)C)CC(C)C)C(Cl)(Cl)Cl (stereo unspecified)	0.994%
CCN(CC)CCCOC(=O)C(O)(c1ccccc1)C1CCCCC1 (stereo unspecified)	-1.3%
CCC(=O)N1C2C3N(C(=O)CC)C1C1N(C(=O)CC)C(C(N1C(=O)CC)N3C(=O)CC)N2C(=O)CC	2%
CP(=O)(Nc1ccccc1)Oc1ccc(F)cc1 (stereo unspecified)	1.81%
O=c1c2cc([N+](=O)[O-])ccc2[nH]c2c([N+](=O)[O-])cc([N+](=O)[O-])cc12	49.3%
CCNC(=S)/N=C(\N)N[N+](=O)[O-]	16.4%
O=C(NC1CCS(=O)(=O)C1)NP(=S)(Oc1ccccc1)Oc1ccccc1 (stereo unspecified)	19.2%
c1ccc(-c2nn[nH]n2)c(-c2nn[nH]n2)c1	-3.42%
CCOC(=O)NC(Sc1ccccc1)C(Cl)(Cl)Cl (stereo unspecified)	-32%
CCOC(=O)c1ccc(NP(C)(=O)Oc2ccc(F)cc2)cc1 (stereo unspecified)	6.75%

SMILES	toxicity
COc1ccc(OP(C)(=O)Nc2ccc(SC(F)(F)F)cc2)cc1 (stereo unspecified)	-1.88%
O=C(OCCN1CCN(CCOCc2ccccc2)CC1)C(O)(c1ccccc1)c1ccccc1	-7.66%
CC(=O)Nc1ccc(Oc2c([N+](=O)[O-])cc([N+](=O)[O-])cc2[N+](=O)[O-])cc1	-3.08%
O=P1(Nc2nc3ccc(Cl)cc3s2)COc2ccccc2O1 (stereo unspecified)	5.47%
CCOc1ccc(C2=NCC(CBr)S2)cc1 (stereo unspecified)	1.47%
CP(=O)(Nc1ccccc1F)Oc1ccccc1 (stereo unspecified)	-5.92%
CC(C)(C)C(=O)NC(Sc1ccccc1)C(Cl)(Cl)Cl (stereo unspecified)	24.2%
CC(C)c1ccc(OP(C)(=O)Nc2ccc(SC(F)(F)F)cc2)cc1 (stereo unspecified)	3.36%
Cc1ccc(C)c(NP(C)(=O)Oc2ccccc2)c1 (stereo unspecified)	-7.67%
Cc1cc(C)cc(OP(C)(=O)Nc2ccccn2)c1 (stereo unspecified)	-3.52%
Cc1ccc(NCCc2c([N+](=O)[O-])cc([N+](=O)[O-])cc2[N+](=O)[O-])cc1	2.57%
CCOP(=O)(Nc1cccc2ccccc12)OCC	10.6%
COc1cc(C(=O)NCC2(N3CCOCC3)CCCCC2)cc(Cl)c1OC(C)C	3.35%
CCOC(=O)c1ccc(NP(C)(=O)Oc2cc(C)cc(C)c2)cc1 (stereo unspecified)	5.05%
Cc1cccc(OCC(=O)OC2CN3CCC2CC3)c1 (stereo unspecified)	-9.48%
Cc1cc(C)cc(OP(C)(=O)Nc2ccc(C)cc2C)c1 (stereo unspecified)	3.14%
O=[N+]([O-])c1ccc2c(c1)nnn2O	-38.1%
CC1=NCCc2c1[nH]c1ccccc21.O=[N+]([O-])c1cc([N+](=O)[O-])c(O)c([N+](=O)[O-])c1	1.31%
CCOP1(=S)c2c(C)nn(CCC#N)c2N=C(c2ccc(F)cc2)N1C (stereo unspecified)	-8.01%
CCOP1(=S)c2c(C)nn(CCC#N)c2N=C(c2ccccc2F)N1C (stereo unspecified)	-1.79%
O=P(Nc1nccs1)(Oc1ccccc1)Oc1ccccc1	9.41%
O=P(Nc1nccs1)(c1ccccc1)c1nc2ccccc2s1 (stereo unspecified)	11.2%
COc1ccccc1OP(C)(=O)Nc1c(C)cccc1C (stereo unspecified)	0.0844%
CN1CCCCC1COC(=O)C1(O)c2ccccc2CCc2ccccc21 (stereo unspecified)	8.72%

SMILES	toxicity
O=P1(Nc2ncccn2)COc2ccccc2OC1	-34.9%
Cc1ccc(OCC(=O)OC2CN3CCC2CC3)cc1 (stereo unspecified)	3.37%
O=P1(Nc2ccc(Br)cn2)COc2ccccc2OC1	-5.9%
CCCOc1ccc(NP(C)(=O)Oc2ccc(Cl)cc2)cc1 (stereo unspecified)	-17.9%
CP(=O)(Nc1ccc(SC(F)(F)F)cc1)Oc1ccccc1 (stereo unspecified)	2.01%
COc1cc(C2NCCC3(OCCO3)C2(C)C)cc(OC)c1OC.O=[N+]([O-])c1cc([N+](=O)[O-])c(O)c([N+](=O)[O-])c1 (stereo unspecified)	1.21%
Cc1nn(-c2ccccc2)c2c1P(=O)(N1CCOCC1)N(C)C(c1ccccc1)=N2 (stereo unspecified)	4.36%
CC1CCC(C(C)C)C(OP(=O)(Nc2ccccn2)c2ccccc2)C1 (stereo unspecified)	-11.9%
CN(C)C1(CNC(=O)c2ccc(S(C)(=O)=O)cc2)CCCCC1	11.6%
Cc1nc2ccc3ccccc3c2s1.O=[N+]([O-])c1cc([N+](=O)[O-])c(O)c([N+](=O)[O-])c1	-17.6%
CC1(CBr)Cn2c(nc3ccccc3c2=O)S1 (stereo unspecified)	-9.72%
CC(C)/C=N\N=C(\N)N[N+](=O)[O-]	-22.4%
O=P1(Nc2ccccn2)COc2ccccc2OC1	21.2%
O=[N+]([O-])c1cc([N+](=O)[O-])c(-n2nnc3ccccc32)c([N+](=O)[O-])c1	0.971%
Clc1n[nH]nc1-c1nn[nH][15n]1	18.5%
CCOC(=O)c1ccc(NP(C)(=O)Oc2ccc(OC)cc2)cc1 (stereo unspecified)	9.48%
CCOP(C)(=S)SCC(=O)NC(C)C(=O)O (stereo unspecified)	7.41%
CP(=O)(Nc1ccccn1)Oc1ccc(Cl)cc1 (stereo unspecified)	25.5%
CCC(C)N(CC(C)C)C(=S)SC(NC(C)=O)C(Cl)(Cl)Cl (stereo unspecified)	4.59%
COP1(=S)c2c(C)nn(CCC#N)c2N=C(c2ccc(F)cc2)N1C (stereo unspecified)	-2.2%
